Assay results: the supplement of paper PMC8166895
Counter-ions that a name gives are not always drawn. The list shows a part of the results. Most entries show no effect beyond the scatter of the controls.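 A single-replicate pilot screen of approved drugs and clinical or known-target compounds measured melting temperature via differential scanning fluorimetry. Top stabilizing hits raised the melting point by 2 °C or more; negative shifts indicate destabilization.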

What follows are molecules tested on SARS-CoV-2 main protease (Mpro, nsp5) (assay: thermal shift ΔTm of Mpro relative to plate average Tm; higher = stronger thermal stabilization of Mpro (binding)). Conditions: 10 µM; protein concentration 1 µM.

SMILES | thermal shift ΔTm of Mpro [°C]
C[C@]12C=CC(=O)C=C1CC[C@@H]1[C@@H]2C(=O)C[C@@]2(C)[C@H]1CC[C@]2(O)C(=O)CO [Prednisone] | 0.0569
C=CC(=O)Nc1cccc(Nc2nc(Nc3ccc(NC4CN(CCF)C4)cc3OC)ncc2C(F)(F)F)c1 | 0.228
Cc1cc(Nc2cc(Cl)nc(Oc3ccc([N+](=O)[O-])cc3)n2)n[nH]1 [Autophinib] | -0.0913
CS(=O)(=O)Nc1ccc([N+](=O)[O-])cc1Oc1ccccc1 [Nimesulide] | 0.0228
CCn1cc(C(=O)O)c(=O)c2cc(F)c(N3CCNC(C)C3)c(F)c21 (stereo unspecified) [Lomefloxacin] | -0.135
Clc1ccccc1-c1nnc(-c2ccccc2Cl)nn1 [Clofentezine] | -0.039
O=c1c(O)c(-c2ccc(O)cc2)oc2c(O)c(O)cc(O)c12 [Herbacetin] | -0.063
CNC(=C[N+](=O)[O-])NCCSCc1csc(CN(C)C)n1 [Nizatidine] | 0.0104
NC(=O)c1nc(-c2c(F)cccc2Cl)oc1Nc1ccc(C(=O)N2CCOCC2)cc1 | -0.0151
CC(C)CN(C[C@@H](O)[C@H](Cc1ccccc1)NC(=O)O[C@H]1CCOC1)S(=O)(=O)c1ccc(N)cc1 [Amprenavir] | 0.0243
CC(C)[C@H](NC(=O)CCCCCN1C(=O)C=CC1=O)C(=O)N[C@@H](C)C(=O)Nc1ccc(CO)cc1 | -0.951
CCC1=C[C@@H]2CN(C1)Cc1c([nH]c3ccccc13)[C@@](C(=O)OC)(c1cc3c(cc1OC)N(C)[C@H]1[C@@](O)(C(=O)OC)[C@H](OC(C)=O)[C@]4(CC)C=CCN5CC[C@]31[C@@H]54)C2 [Vinorelbine Tartrate] | -0.0755
O=C(NC1CCOCC1)c1ccc(-c2cc(-c3c[nH]nc3-c3ccccn3)ccn2)cc1 | -0.0687
O=C1C(=O)N(Cc2ccc(Cl)c(Cl)c2)c2ccccc21 [Apoptosis Activator 2] | 0.0536
NS(=O)(=O)c1cc2c(cc1Cl)NCNS2(=O)=O [Hydrochlorothiazide] | -0.235
COc1cc(/C=C/C(=O)O)ccc1O [Ferulic Acid] | 0.0506
C[N+]1(C)CCC(=C(c2ccccc2)c2ccccc2)CC1 [Diphemanil Methylsulfate] | -0.0446
CN(C)CCC=C1c2ccccc2C=Cc2ccccc21 [Cyclobenzaprine HCl] | 0.0659
O=C1c2cccc(O)c2C(=O)c2c(O)cc(CO)cc21 [Aloe-emodin] | 0.00146
CN(C)CCc1c[nH]c2ccc(C[C@H]3COC(=O)N3)cc12 [Zolmitriptan] | 0.0927
O=c1[nH]c(=O)n([C@H]2C[C@H](O)[C@@H](CO)O2)cc1F [Floxuridine] | 0.199
O=C(Nc1ccc2[nH]ccc2c1)c1ccccc1 | 0.028
CNNCc1ccc(C(=O)NC(C)C)cc1 [Procarbazine hydrochloride] | 0.0193
OB1OCc2cc(Cl)ccc21 | -0.0217
COc1cc(C)c(/C=C/C(C)=C/C=C/C(C)=C/C(=O)O)c(C)c1C [Acitretin] | 0.638
CC(C)(F)C[C@H](N[C@@H](c1ccc(-c2ccc(S(C)(=O)=O)cc2)cc1)C(F)(F)F)C(=O)NC1(C#N)CC1 [Odanacatib (MK-0822)] | -0.161

Rewritten tab-delimited: entries from further up
SMILES	thermal shift ΔTm of Mpro [°C]
O=c1c(O)c(-c2ccc(O)cc2)oc2c(O)c(O)cc(O)c12 [Herbacetin]	-0.063
CNC(=C[N+](=O)[O-])NCCSCc1csc(CN(C)C)n1 [Nizatidine]	0.0104
NC(=O)c1nc(-c2c(F)cccc2Cl)oc1Nc1ccc(C(=O)N2CCOCC2)cc1	-0.0151
CC(C)CN(C[C@@H](O)[C@H](Cc1ccccc1)NC(=O)O[C@H]1CCOC1)S(=O)(=O)c1ccc(N)cc1 [Amprenavir]	0.0243
CC(C)[C@H](NC(=O)CCCCCN1C(=O)C=CC1=O)C(=O)N[C@@H](C)C(=O)Nc1ccc(CO)cc1	-0.951
CCC1=C[C@@H]2CN(C1)Cc1c([nH]c3ccccc13)[C@@](C(=O)OC)(c1cc3c(cc1OC)N(C)[C@H]1[C@@](O)(C(=O)OC)[C@H](OC(C)=O)[C@]4(CC)C=CCN5CC[C@]31[C@@H]54)C2 [Vinorelbine Tartrate]	-0.0755
O=C(NC1CCOCC1)c1ccc(-c2cc(-c3c[nH]nc3-c3ccccn3)ccn2)cc1	-0.0687
O=C1C(=O)N(Cc2ccc(Cl)c(Cl)c2)c2ccccc21 [Apoptosis Activator 2]	0.0536
NS(=O)(=O)c1cc2c(cc1Cl)NCNS2(=O)=O [Hydrochlorothiazide]	-0.235
COc1cc(/C=C/C(=O)O)ccc1O [Ferulic Acid]	0.0506
C[N+]1(C)CCC(=C(c2ccccc2)c2ccccc2)CC1 [Diphemanil Methylsulfate]	-0.0446
CN(C)CCC=C1c2ccccc2C=Cc2ccccc21 [Cyclobenzaprine HCl]	0.0659
O=C1c2cccc(O)c2C(=O)c2c(O)cc(CO)cc21 [Aloe-emodin]	0.00146
CN(C)CCc1c[nH]c2ccc(C[C@H]3COC(=O)N3)cc12 [Zolmitriptan]	0.0927
O=c1[nH]c(=O)n([C@H]2C[C@H](O)[C@@H](CO)O2)cc1F [Floxuridine]	0.199

Additional records:

SMILES | thermal shift ΔTm of Mpro [°C]
CC(C)OC(=O)CCC/C=C\C[C@@H]1[C@@H](CC[C@@H](O)CCc2ccccc2)[C@H](O)C[C@@H]1O [Latanoprost] | -0.206
C[C@@]12N[C@@H](Cc3ccccc31)c1ccccc12 [(-)-MK 801 Maleate] | 0.128
CN(C)c1ccc(C=C2C(=O)Nc3ccccc32)cc1 | -0.0682
CC(c1cc2ccccc2s1)N(O)C(N)=O (stereo unspecified) [Zileuton] | 0.129
O=C(O)C(Cc1ccccc1[N+](=O)[O-])=NNc1nc(-c2ccc(Cl)c(Cl)c2)cs1 (mixture of isomers) | 0.0564
C[C@@H]1C(=O)O[C@H]2C[C@@]34[C@H]5C[C@@H](C(C)(C)C)[C@]36[C@@H](OC(=O)[C@@H]6O)O[C@@]4(C(=O)O5)[C@]21O [Ginkgolide A] | 0.0697
CC1=C(C(=O)OC2CCCCC2)C(c2ccc([N+](=O)[O-])cc2)C2=C(CC(C)(C)CC2=O)N1 (stereo unspecified) | 0.282
OC[C@@H](O)[C@H]1O[C@@H]2O[C@H](C(Cl)(Cl)Cl)O[C@@H]2[C@H]1O [Alpha-Chloralose] | 0.267
NC(=O)c1ncn([C@@H]2O[C@H](CO)[C@@H](O)[C@H]2O)c1N [Acadesine] | 0.0663
CC1=C(/C=C/C(C)=C/C=C/C(C)=C/C(=O)Nc2ccc(O)cc2)C(C)(C)CCC1 [Fenretinide] | 0.285
CC(=O)OC12COC1CC(O)C1(C)C(=O)C(O)C3=C(C)C(O)CC(O)(C(OC(=O)c4ccccc4)C21)C3(C)C (stereo unspecified) [10-Deacetylbaccatin-III] | 0.0232
C[N+]12CCC(CC1)C(OC(=O)C(O)(c1ccccc1)c1ccccc1)C2 (stereo unspecified) [Clidinium bromide] | 0.0437
C#C[C@]1(O)CC[C@H]2[C@@H]3[C@H](C)CC4=C(CCC(=O)C4)[C@H]3CC[C@@]21C [Tibolone] | 0.15
CC(C)(C)c1cc(C(=O)C(C#N)=NNc2cccc(Cl)c2)no1 | 0.958
CCc1nc(C(N)=O)c(Nc2ccc(N3CCC(N4CCN(C)CC4)CC3)c(OC)c2)nc1NC1CCOCC1 [Gilteritinib] | 0.0805
O=C(O)COc1nn(Cc2ccccc2)c2ccccc12 [Bendazac L-lysine] | 0.0817
S=C=Nc1ccc(N=C=S)cc1 [Biscomate] | 0.188
OC[C@@H](O)[C@@H](O)[C@H](O)[C@@H](O)CO [Sorbitol] | 0.225
COc1ccc(CC(=O)Nc2nc3c(s2)CCc2ccccc2-3)cc1OC | 0.052
CCCCC(=O)O[C@]1(C(=O)CO)[C@@H](C)C[C@H]2[C@@H]3CCC4=CC(=O)C=C[C@]4(C)[C@@]3(F)[C@@H](O)C[C@@]21C [Betamethasone valerate (Betnovate)] | -0.191
CO[C@]12C[C@@H](COC(=O)c3cncc(Br)c3)CN(C)[C@@H]1Cc1cn(C)c3cccc2c13 [Nicergoline] | 0.221
CC(=O)OCC(=O)[C@@]1(O)CC[C@H]2[C@@H]3CCC4=CC(=O)CC[C@]4(C)[C@H]3C(=O)C[C@@]21C [Cortisone acetate] | -0.0998
COc1cc(C(=O)N2CCOCC2)cc(OC)c1OC [Trimetozine] | 0.104
FC(F)(F)c1ccc(/C=C/c2nc(COc3ccc(CCCCn4ccnn4)cc3)co2)cc1 [Mubritinib (TAK 165)] | -0.104
COc1cc(-c2c(C)cc(O)cc2O[C@@H]2O[C@H](CO)[C@@H](O)[C@H](O)[C@H]2O)oc(=O)c1 [Aloenin A] | -0.0273
O=C1c2c(O)cc(O)cc2O[C@H](c2ccc(O)c(O)c2)[C@H]1O [(+)-Taxifolin] | -0.95

SMILES | thermal shift ΔTm of Mpro [°C]
O=C1c2c(O)cc(O)cc2OC(c2ccc(O)c(O)c2)C1O (stereo unspecified) [Taxifolin (Dihydroquercetin)] | -1.25
CN(C)CCCOc1nn(Cc2ccccc2)c2ccccc12 [Benzydamine HCl] | -0.0855
COc1ccc(Nc2nccc(NCCO)n2)cc1 [Cardiogenol C hydrochloride] | 0.266
CC(C)(O)CC[C@@H](O)[C@](C)(O)[C@H]1CC[C@@]2(O)C3=CC(=O)[C@@H]4C[C@@H](O)[C@@H](O)C[C@]4(C)[C@H]3CC[C@]12C [20-Hydroxyecdysone] | -0.00772
CNC(=O)c1nn(C)c2c1C(C)(C)Cc1cnc(Nc3ccc(N4CCN(C)CC4)cc3)nc1-2 | -0.226
O=C(O)CCN1C(=O)/C(=C/c2ccc(-c3ccc([N+](=O)[O-])cc3)o2)SC1=S | -0.000678
Cc1cc(N2C[C@@H](C)N[C@@H](C)C2)ncc1-c1ccc(-c2nc3c(ccn3C)c(=O)[nH]2)cc1 | -0.0544
O=C(/C=C/c1ccc2ccc(C(F)(F)F)cc2n1)c1ccncc1 | -0.0141
CN1CCN(c2cccc(Nc3nc4c(-c5ccc(S(C)(=O)=O)cc5)cccn4n3)c2)CC1 | 0.0758
CN(Cc1ccccc1)C(=O)C1CCCN(Cc2ccc(C(F)(F)F)cc2)C1 (stereo unspecified) [T.cruzi Inhibitor] | 0.0174
COc1cc2nc(N3CCN(C(=O)C4CCCO4)CC3)nc(N)c2cc1OC (stereo unspecified) [Terazosin HCl] | 0.117
COc1cc2nc(N3CCN(C(=O)C4CCCO4)CC3)nc(N)c2cc1OC (stereo unspecified) [Terazosin hydrochloride] | -0.16
Nc1ncnc2c1c(-c1ccc(Oc3ccccc3)cc1)nn2C1CCCC1 | -0.353
NC(=O)[C@@H]1CC[C@@H]2CN1C(=O)N2OS(=O)(=O)O [Avibactam sodium] | 0.0705
CN[C@@H](C)C(=O)N[C@H](C(=O)N1CCC[C@H]1C(=O)Nc1snnc1-c1ccccc1)C1CCCCC1 | -0.107
CN(C)C/C=C/C(=O)Nc1ccc(C(=O)N2CCC[C@@H](Nc3ncc(Cl)c(-c4c[nH]c5ccccc45)n3)C2)cc1 | -0.0686
COC(=O)[C@@H](N)Cc1cnc[nH]1 [Methyl L-histidinate dihydrochloride] | -0.0787
Cc1ccc(C2=Nc3ccc(Cl)cc3OC2)cc1 | -0.0996
COc1cc(OC)c(C=C2C(=O)Nc3ccccc32)c(OC)c1 | 0.158
CN1CCCCC1CCN1c2ccccc2Sc2ccc([S+](C)[O-])cc21 (stereo unspecified) [Mesoridazine Besylate] | -0.0415
CC(=O)OCOC(=O)CN(CC(=O)OCOC(C)=O)c1ccccc1OCCOc1ccccc1N(CC(=O)OCOC(C)=O)CC(=O)OCOC(C)=O | -0.224
O=S(=O)(c1ccccc1)c1cnc2c(N3CCNCC3)cccc2c1 | -0.109
COc1ccc(-n2c(C)c([N+](=O)[O-])c3ccc(O)cc32)cc1 | -0.214
COc1ccc(C2(CNC(=O)c3ccc(NC(=O)c4ccco4)cc3)CCOCC2)cc1 | -0.011
